Positions count from the first letter of the chain named. In names and notes the source's numbering stands.
B1: ZmPPC1 G678S: engineered Zea mays PPC1 with G678S substitution (G682S in SEQ ID NO:15) (protein)
chain: MASTKAPGPGEKHHSIDAQLRQLVPGKVSEDDKLIEYDALLVDRFLNILQDLHGPSLREFVQECYEVSADYEGKGDTTKLGELGAKLTGLAPADAILVASSILHMLNLANLAEEVQIAHRRRNSKLKKGGFADEGSATTESDIEETLKRLVSEVGKSPEEVFEALKNQTVDLVFTAHPTQSARRSLLQKNARIRNCLTQLNAKDITDDDKQELDEALQREIQAAFRTDEIRRAQPTPQDEMRYGMSYIHETVWKGVPKFLRRVDTALKNIGINERLPYNVSLIRFSSWMGGDRDGNPRVTPEVTRDVCLLARMMAANLYIDQIEELMFELSMWRCNDELRVRAEELHSSSGSKVTKYYIEFWKQIPPNEPYRVILGHVRDKLYNTRERARHLLASGVSEISAESSFTSIEEFLEPLELCYKSLCDCGDKAIADGSLLDLLRQVFTFGLSLVKLDIRQESERHTDVIDAITTHLGIGSYREWPEDKRQEWLLSELRGKRPLLPPDLPQTDEIADVIGAFHVLAELPPDSFGPYIISMATAPSDVLAVELLQRECGVRQPLPVVPLFERLADLQSAPASVERLFSVDWYMDRIKGKQQVMVGYSDSGKDAGRLSAAWQLYRAQEEMAQVAKRYGVKLTLFHGRGGTVGRGGGPTHLAILSQPPDTINGSIRVTVQGEVIEFCFSEEHLCFQTLQRFTAATLEHGMHPPVSPKPEWRKLMDEMAVVATEEYRSVVVKEARFVEYFRSATPETEYGRMNIGSRPAKRRPGGGITTLRAIPWIFSWTQTRFHLPVWLGVGAAFKFAIDKDVRNFQVLKEMYNEWPFFRVTLDLLEMVFAKGDPGIAGLYDELLVAEELKPFGKQLRDKYVETQQLLLQIAGHKDILEGDPFLKQGLVLRNPYITTLNVFQAYTLKRIRDPNFKVTPQPPLSKEFADENKPAGLVKLNPASEYPPGLEDTLILTMKGIAAGMQNTG
B2: ZmPPC1 wild type: wild type Zea mays PPC1, C4 PEPC, SEQ ID NO:15 (protein)
chain: B1 chain with S682G
B3: ZmPPC1 A651V: engineered Zea mays PPC1 with A651V substitution (A655V in SEQ ID NO:15) (protein)
chain: B1 chain with A655V, S682G
B4: ZmPPC1 T7781: engineered Zea mays PPC1 with T778I substitution (T782I in SEQ ID NO:15) (protein)
chain: B1 chain with S682G, T782I
B5: AtPPC1 G678S: engineered Arabidopsis thaliana PPC1 with G678S substitution (alr-128), SEQ ID NO:11 (protein)
chain: MANRKLEKMASIDVHLRQLVPGKVSEDDKLVEYDALLLDRFLDILQDLHGEDLRETVQELYEHSAEYEGKHEPKKLEELGSVLTSLDPGDSIVIAKAFSHMLNLANLAEEVQIAYRRRIKKLKKGDFVDESSATTESDLEETFKKLVGDLNKSPEEIFDALKNQTVDLVLTAHPTQSVRRSLLQKHGRIRDCLAQLYAKDITPDDKQELDEALQREIQAAFRTDEIKRTPPTPQDEMRAGMSYFHETIWKGVPKFLRRVDTALKNIGIEERVPYNAPLIQFSSWMGGDRDGNPRVTPEVTRDVCLLARMMAATMYFNQIEDLMFEMSMWRCNDELRARADEVHANSRKDAAKHYIEFWKSIPTTEPYRVILGDVRDKLYHTRERAHQLLSNGHSDVPVEATFINLEQFLEPLELCYRSLCSCGDRPIADGSLLDFLRQVSTFGLSLVRLDIRQESDRHTDVLDAITTHLDIGSYREWSEERRQEWLLSELSGKRPLFGSDLPKTEEIADVLDTFHVIAELPADSFGAYIISMATAPSDVLAVELLQRECRVKQPLRVVPLFEKLADLEAAPAAVARLFSVDWYKNRINGKQEVMIGYSDSGKDAGRLSAAWQLYKAQEELVKVAKEYGVKLTMFHGRGGTVGRGGGPTHLAILSQPPDTINGSLRVTVQGEVIEQSFSEEHLCFRTLQRFTAATLEHGMRPPISPKPEWRALLDEMAVVATEEYRSVVFQEPRFVEYFRLATPELEYGRMNIGSRPSKRKPSGGIESLRAIPWIFAWTQTRFHLPVWLGFGSAIRHVIEKDVRNLHMLQDMYQHWPFFRVTIDLIEMVFAKGDPGIAALYDKLLVSEELWPFGEKLRANFEETKKLILQTAGHKDLLEGDPYLKQRLRLRDSYITTLNVCQAYTLKRIRDPSYHVTLRPHISKEIAESSKPAKELIELNPTSEYAPGLEDTLILTMKGIAAGLQNTG

Columns and labels:
[1] = tested on: Zea mays PPC1 (ZmPPC1, C4 PEPC); experiment: malate dehydrogenase coupled PEPC enzymatic assay, maize C4 PPC1 and engineered variants; assay type: biochemical; parameters: key: MX—mixed; CO—competitive; NC—non-competitive; details: inhibition by malate
Excerpt: (§1) For both Arabidopsis C3 PPC1 (AtPPC1) and maize C4 PPC1 (ZmPPC1), the entire coding sequence for each was cloned into pET22b, which contains an amino-terminal 6×-HIS tag for protein purification, and expression was driven by the T7 promoter and lac operon. Relevant mutations were introduced by the Stratagene QuikChange mutagenesis kit using PCR amplification. Both wild type and mutant cDNA constructs were sequenced entirely following cloning into pet22b. Proteins were produced by growing transformed E. coli (BL21 CodonPlus) in autoinduction medium at 18° C. for 16 hours. Proteins were isolated by sonication of bacterial cells followed by passage over a nickel sepharose affinity column, elution with imidazole and separation on a GE SUPERDEX HILOAD 200 PG 16/60 all using an AKTA FPLC.
(§2) Enzyme analysis was conducted in vitro using protein that was generated by expression in E. coli using the pET22b vector. For expression, pET22b constructs were transformed into E. coli BL21-DE3 codon plus RIL cells and grown at 37° C. in autoinduction media until reaching an OD=1 after which these were transferred to 18° C. for 18 hours. Samples were collected and lysed by sonication. Protein was purified by passage through a His-trap nickel affinity column on an Akta FPLC and then eluted with 400 mM imidazole. Partially purified protein was then separated on an FPLC equipped with a HiPrep S200 size exclusion column (16/60) after which collected sample was concentrated by centrifugation to a final concentration of 4 mg/ml in 50% glycerol. Samples were stored at −20° C.
(§3) For enzymatic assays, a malate dehydrogenase coupled reaction was conducted with a range of substrate concentrations (0-7.5 mM phosphoenolpyruvate pyruvate) and a range of concentrations of allosteric inhibitor (0-50 mM malate). Assays were monitored using a Victor2 microplate reader at 25° C. Reactions consisted of […] PPC enzyme variants, 50 mM HEPES pH7.5, 10 mM MgCl2, 10 mM KHCO3 (carbonate substrate), 0.2 mM NADH, and 10 units/ml of malate dehydrogenase. Reaction time was 15 minutes and samples were measured on an ˜40 second interval. For measurement, which monitors loss of NADH, excitation wavelength was 340 nM and emission wavelength was 460 nM.

[2] = tested on: Arabidopsis thaliana PPC1 (AtPPC1, C3 PEPC); experiment: malate dehydrogenase coupled PEPC enzymatic assay, Arabidopsis C3 PPC1 and engineered variants; assay type: biochemical; parameters: key to M (model of inhibition): MX—mixed; CO—competitive; NC—non-competitive; details: inhibition by malate
Excerpt: as §1, §2
as §3, with “nM. From these assays, the enzyme kinetics of Tables 4-1 and 4-2 were determined for each enzyme variant.” for “nM.”

Row | Molecule | M (model of inhibition) [1] | M (model of inhibition) [2]
1 | B1 | CO | –
2 | B2 | CO | –
3 | B3 | CO | –
4 | B4 | CO | –
5 | B5 | – | MX

Reference: US12168773B2, “Engineered phosphoenolpyruvate carboxylase enzymes” (The Regents of the University of California, priority 2019, dated 2024)
